Data taken from patent publication US7432045B2 (priority 2003, dated 2008).

Assay: peptide synthesis
Settings: whole synthesis

Substance | purity (crude or final not stated) [%]
PEPTIDE1{[BiotinAhx].Y.G.R.K.K.R.R.Q.R.R.R.P.L.A.A.L.P.L.V.L.A.A.P.L.A.V.L.A}$$$$V2.0 | 99
^b-GRKKRRQRRRC^amide | 91
PEPTIDE1{G.R.K.K.R.R.Q.R.R.R.P.L.A.A.L.P.L.V.L.A.A.P.L.A.V.L.A}$$$$V2.0 | 84
PEPTIDE1{G.R.K.K.R.R.Q.R.R.R.C}$$$$V2.0 | 97
^NH2GRKKRRQRRR^amide | 96
PEPTIDE1{[BiotinAhx].Y.G.R.K.K.R.R.Q.R.R.R.P.G.Y.A.G.A.V.V.N.D.L}$$$$V2.0 | 79
^b-LAVLAPGRKKRRQRRRC^amide | 70
PEPTIDE1{[BiotinAhx].L.A.A.L.P.L.V.L.A.A.P.L.A.V.L.A.P.G.R.K.K.R.R.Q.R.R.R.C.[am]}$$$$V2.0 | 92
PEPTIDE1{[BiotinAhx].L.V.L.A.A.P.L.A.V.L.A.P.G.R.K.K.R.R.Q.R.R.R.C.[am]}$$$$V2.0 | 63
^b-Y GRKKRRQRRRPGDVYANGLVA^COOH | 90

Some peptides are written in HELM: one residue between dots, names in brackets for other building blocks, links after the first $.
